Source: the supplement of paper PMC4604168 (melanoma cell lines)
The list shows a part of the results. Many values rest on one well or one pass, so single values are uncertain.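 Cells were imaged in 1,536-well plates, and nuclei stained with an antibody against cleaved PARP were counted against all DNA-stained nuclei to give the apoptosis fraction. Screening doses were chosen to leave most cells alive, and resting and induced cleaved-PARP levels differ strongly between cell lines.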

What was measured:
Experiment in all cases: cleaved PARP positive nuclei fraction relative to DMSO control; melanoma cells; higher = more apoptosis
Details in all cases: library dose: low library concentration; 72 h
MZ2-MEL = tested on: MZ2-MEL
MeWo = tested on: MeWo
RPMI7951 = tested on: RPMI7951
RVH-421 = tested on: RVH-421
SkMel28 = tested on: SkMel28
SkMel2 = tested on: SkMel2
SkMel30 = tested on: SkMel30
SkMel5 = tested on: SkMel5
UACC257 = tested on: UACC257
UACC62 = tested on: UACC62

Row | SMILES | cleaved PARP positive nuclei fraction (MZ2-MEL) [%] | cleaved PARP positive nuclei fraction (MeWo) [%] | cleaved PARP positive nuclei fraction (RPMI7951) [%] | cleaved PARP positive nuclei fraction (RVH-421) [%] | cleaved PARP positive nuclei fraction (SkMel28) [%] | cleaved PARP positive nuclei fraction (SkMel2) [%] | cleaved PARP positive nuclei fraction (SkMel30) [%] | cleaved PARP positive nuclei fraction (SkMel5) [%] | cleaved PARP positive nuclei fraction (UACC257) [%] | cleaved PARP positive nuclei fraction (UACC62) [%]
1 | NC1(c2ccc(-c3nc4ccn5c(=O)[nH]nc5c4cc3-c3ccccc3)cc2)CCC1 + N#Cc1c(O)c2c(-c3ccc(-c4ccccc4O)cc3)csc2[nH]c1=O [A769662] (first compound 0.4 µM, partner dose 2 µM) | 141 | 72.5 | 118 | 116 | 253 | 56.5 | 114 | 79 | 103 | 155
2 | NC1(c2ccc(-c3nc4ccn5c(=O)[nH]nc5c4cc3-c3ccccc3)cc2)CCC1 + Cc1cc([N+](=O)[O-])ccc1NS(=O)(=O)c1cc(Cl)ccc1Cl [FH535] (first compound 0.4 µM, partner dose 1 µM) | 88.7 | 82.4 | 91.1 | 173 | 258 | 116 | 29.8 | 210 | 173 | 469
3 | CCCCCCCCc1ccc(CCC(N)(CO)CO)cc1 [fingolimod] + Cn1cncc1[C@@](N)(c1ccc(Cl)cc1)c1ccc2c(c1)c(-c1cccc(Cl)c1)cc(=O)n2C [tipifarnib] (first compound 2 µM, partner dose 0.01 µM) | 15.1 | 84.4 | 66.1 | 26 | 191 | 93.9 | 73.1 | 66.4 | 116 | 97.7
4 | CCCCCCCCc1ccc(CCC(N)(CO)CO)cc1 [fingolimod] + Cc1cc([N+](=O)[O-])ccc1NS(=O)(=O)c1cc(Cl)ccc1Cl [FH535] (first compound 2 µM, partner dose 1 µM) | 177 | 53.7 | 146 | 107 | 135 | 64.4 | 82.7 | 95 | 136 | 58.1
5 | CCCCCCCCc1ccc(CCC(N)(CO)CO)cc1 [fingolimod] + Oc1nc(-c2ccc(C(F)(F)F)cc2)nc2c1CSCC2 [XAV939] (first compound 2 µM, partner dose 2 µM) | 92.3 | 77.4 | 55.8 | 437 | 150 | 132 | 255 | 86.2 | 151 | 137
6 | Cn1sc(=O)n(Cc2ccccc2)c1=O + COc1ccc2c(c1)CCC1C2CCC2(C)C(NCCCCCCN3C(=O)C=CC3=O)CCC12 [U73122] (first compound 0.4 µM, partner dose 0.4 µM) | 142 | 178 | 38.3 | 170 | 77.4 | 125 | 97.1 | 148 | 91.8 | 251
7 | Cn1cnc2c(F)c(Nc3ccc(Br)cc3Cl)c(C(=O)NOCCO)cc21 [selumetinib] + NCC(=O)Nc1ccc(-n2nc(C(F)(F)F)cc2-c2ccc3c(ccc4ccccc43)c2)cc1 [OSU03012] (first compound 0.015 µM, partner dose 1 µM) | 336 | 212 | 141 | 151 | 33.7 | 147 | 250 | 96.9 | 148 | 115
8 | Cn1sc(=O)n(Cc2ccccc2)c1=O + O=C(Nc1cccc(Cl)c1)Nc1ncc(CCNc2ncnc3ccsc23)s1 [SNS314] (first compound 0.4 µM, partner dose 0.0008 µM) | 101 | 101 | 199 | 29.8 | 37.1 | 128 | 179 | 179 | 96.6 | 38.6
9 | C[C@]1(O)C[C@@H](c2nc(-c3ccc4ccc(-c5ccccc5)nc4c3)c3c(N)nccn32)C1 + CCN(CC)CCCCNc1ncc2cc(-c3cc(OC)cc(OC)c3)c(NC(=O)NC(C)(C)C)nc2n1 [PD173074] (first compound 0.4 µM, partner dose 0.1 µM) | 53 | 204 | 152 | 20.9 | 75.8 | 83.6 | 161 | 214 | 68.2 | 38.1
10 | Cn1sc(=O)n(Cc2ccccc2)c1=O + CO[C@@H]1[C@H](N(C)C(=O)c2ccccc2)C[C@H]2O[C@]1(C)n1c3ccccc3c3c4c(c5c6ccccc6n2c5c31)C(=O)NC4 [Midostaurin] (first compound 0.4 µM, partner dose 0.08 µM) | 37.7 | 448 | 74.6 | 73.8 | 78.8 | 124 | 63.6 | 102 | 134 | 74.5
11 | Cn1sc(=O)n(Cc2ccccc2)c1=O + CN(NC(=O)CC(=O)NN(C)C(=S)c1ccccc1)C(=S)c1ccccc1 [STA4783] (first compound 0.4 µM, partner dose 0.006 µM) | 226 | 110 | 50.6 | 59.3 | 165 | 34.7 | 140 | 89 | 144 | 440
12 | Cn1sc(=O)n(Cc2ccccc2)c1=O + C[C@@H]1CCN(C(=O)CC#N)C[C@@H]1N(C)c1ncnc2[nH]ccc12 [CP690550] (first compound 0.4 µM, partner dose 1 µM) | 30 | 110 | 49.7 | 38.4 | 66.7 | 164 | 64.5 | 37.2 | 82.1 | 72.4
13 | NC1(c2ccc(-c3nc4ccn5c(=O)[nH]nc5c4cc3-c3ccccc3)cc2)CCC1 + C[C@@H]1CCN(C(=O)CC#N)C[C@@H]1N(C)c1ncnc2[nH]ccc12 [CP690550] (first compound 0.4 µM, partner dose 1 µM) | 91.6 | 122 | 76.2 | 52.5 | 93.5 | 157 | 178 | 77.5 | 40.1 | 374
14 | COc1ccc(C2=N[C@@H](c3ccc(Cl)cc3)[C@@H](c3ccc(Cl)cc3)N2C(=O)N2CCNC(=O)C2)c(OC(C)C)c1 [Nutlin-3] + COc1cc2ncnc(Nc3ccc(Oc4ccccc4)cc3)c2cc1OC [SrcI1] (first compound 0.1 µM, partner dose 2 µM) | 44.8 | 58.2 | 160 | 134 | 243 | 78.9 | 243 | 78.8 | 75.5 | 108
15 | COc1ccc(C2=N[C@@H](c3ccc(Cl)cc3)[C@@H](c3ccc(Cl)cc3)N2C(=O)N2CCNC(=O)C2)c(OC(C)C)c1 [Nutlin-3] + COc1cc(N2CCC(N3CCN(C)CC3)CC2)ccc1Nc1ncc(Cl)c(Nc2ccccc2S(=O)(=O)C(C)C)n1 [NVP-TAE684] (first compound 0.1 µM, partner dose 0.08 µM) | 55.6 | 142 | 152 | 157 | 145 | 103 | 194 | 73.1 | 89.6 | 171
16 | NC(=O)c1ccc(N(C(N)=O)c2c(F)cccc2F)nc1-c1ccc(F)cc1F + COc1cc(N2CCC(N3CCN(C)CC3)CC2)ccc1Nc1ncc(Cl)c(Nc2ccccc2S(=O)(=O)C(C)C)n1 [NVP-TAE684] (first compound 0.4 µM, partner dose 0.08 µM) | 152 | 45.3 | 103 | 85 | 160 | 109 | 64.3 | 178 | 248 | 64.8
17 | NC1(c2ccc(-c3nc4ccn5c(=O)[nH]nc5c4cc3-c3ccccc3)cc2)CCC1 + CC1(C)NC(=O)N(c2ccc([N+](=O)[O-])c(C(F)(F)F)c2)C1=O [nilutamide] (first compound 0.4 µM, partner dose 1 µM) | 57.8 | 101 | 44 | 22.4 | 160 | 64.3 | 67 | 42.8 | 125 | 83.6
18 | NC(=O)c1ccc(N(C(N)=O)c2c(F)cccc2F)nc1-c1ccc(F)cc1F + O=C1NC(=O)/C(=C/c2ccc(-c3ccc(F)cc3O)o2)S1 [AS252424] (first compound 0.4 µM, partner dose 1 µM) | 64.5 | 65.4 | 94.3 | 70.1 | 131 | 111 | 84.3 | 160 | 235 | 144
19 | NC1(c2ccc(-c3nc4ccn5c(=O)[nH]nc5c4cc3-c3ccccc3)cc2)CCC1 + COc1ccc(COc2ccc(Cc3cnc(N)nc3N)cc2OC)cc1 [GW2580] (first compound 0.4 µM, partner dose 1 µM) | 102 | 48.2 | 119 | 44.4 | 363 | 72 | 94.9 | 88.9 | 599 | 189
20 | NC1(c2ccc(-c3nc4ccn5c(=O)[nH]nc5c4cc3-c3ccccc3)cc2)CCC1 + CN(C)S(=O)(=O)c1ccc2c(c1)/C(=C/c1cc3c([nH]1)CCCC3)C(=O)N2 [SU6656] (first compound 0.4 µM, partner dose 0.4 µM) | 78.9 | 61.8 | 101 | 116 | 96.9 | 99.9 | 82 | 197 | 58.4 | 93.4
21 | Cn1sc(=O)n(Cc2ccccc2)c1=O + O=C1NC(=O)/C(=C/c2ccc(-c3ccc(F)cc3O)o2)S1 [AS252424] (first compound 0.4 µM, partner dose 1 µM) | 311 | 28.1 | 48 | 150 | 74.9 | 109 | 309 | 35.5 | 182 | 160
22 | COc1ccc(C2=N[C@@H](c3ccc(Cl)cc3)[C@@H](c3ccc(Cl)cc3)N2C(=O)N2CCNC(=O)C2)c(OC(C)C)c1 [Nutlin-3] + O=S(=O)(c1ccccc1)N(CC(F)(F)F)c1ccc(C(O)(C(F)(F)F)C(F)(F)F)cc1 [T0901317] (first compound 0.1 µM, partner dose 1.4 µM) | 105 | 80.1 | 244 | 40 | 188 | 33.6 | 116 | 179 | 62.5 | 264

Single records, as listed above. Order of values: cleaved PARP positive nuclei fraction (MZ2-MEL) [%]	cleaved PARP positive nuclei fraction (MeWo) [%]	cleaved PARP positive nuclei fraction (RPMI7951) [%]	cleaved PARP positive nuclei fraction (RVH-421) [%]	cleaved PARP positive nuclei fraction (SkMel28) [%]	cleaved PARP positive nuclei fraction (SkMel2) [%]	cleaved PARP positive nuclei fraction (SkMel30) [%]	cleaved PARP positive nuclei fraction (SkMel5) [%]	cleaved PARP positive nuclei fraction (UACC257) [%]	cleaved PARP positive nuclei fraction (UACC62) [%]
NC1(c2ccc(-c3nc4ccn5c(=O)[nH]nc5c4cc3-c3ccccc3)cc2)CCC1 + CN(C)S(=O)(=O)c1ccc2c(c1)/C(=C/c1cc3c([nH]1)CCCC3)C(=O)N2 [SU6656] (first compound 0.4 µM, partner dose 0.4 µM) is entered as 78.9	61.8	101	116	96.9	99.9	82	197	58.4	93.4
CCCCCCCCc1ccc(CCC(N)(CO)CO)cc1 [fingolimod] + Cc1cc([N+](=O)[O-])ccc1NS(=O)(=O)c1cc(Cl)ccc1Cl [FH535] (first compound 2 µM, partner dose 1 µM) is entered as 177	53.7	146	107	135	64.4	82.7	95	136	58.1
